Assays:
[1] = Stability in Sprague-Dawley rat hepatocytes assessed as clearance per […] at 1 uM after 20 mins by LC-MS/MS analysis; format: ADME, cell-based, Hepatocyte
[2] = Protein binding in human plasma by equilibrium dialysis assay

Row | Compound | CLH [1] | PPB [2]
1 | CC(=O)Nc1ccc(Nc2ncnc(N[C@@H](Cc3ccccc3)C(=O)OC(C)(C)C)n2)cc1 | 230.4 µL/min | 97.2%
2 | CC(=O)Nc1ccc(Nc2ncnc(N[C@@H](CC(C)C)C(=O)OC(C)(C)C)n2)cc1 | 113.7 µL/min | 94.1%
